Assay [1] concerns the target 재조합 원숭이 TIGIT 단백질 (recombinant cynomolgus TIGIT; acrobiosystems, China) (cynomolgus monkey). Put plainly: ELISA, coated recombinant cynomolgus TIGIT. Background: An ELISA detects its analyte on a solid surface through an enzyme-linked reagent.
The target of assay [2] is T1, 인간 TIGIT 발현 CHO-K1 세포 (CHO-K1 TIGIT, Genscript M00542)의 인간 TIGIT (human) (UniProt Q495A1).
T1 sequence: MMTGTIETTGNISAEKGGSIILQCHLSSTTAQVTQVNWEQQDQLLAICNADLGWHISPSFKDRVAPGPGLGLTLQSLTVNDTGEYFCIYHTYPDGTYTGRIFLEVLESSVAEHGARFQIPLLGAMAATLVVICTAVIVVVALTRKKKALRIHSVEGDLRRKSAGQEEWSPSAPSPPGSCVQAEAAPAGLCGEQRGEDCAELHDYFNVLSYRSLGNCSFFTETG
Kind of assay: flow cytometry on CHO-K1 cells expressing human TIGIT. (In general: In flow cytometry, cells or beads pass a laser one at a time.)

In assay [3] the target is 원숭이(cynomolgus monkey) TIGIT-발현 Jurkat 세포 (Creative Biogene)의 TIGIT (cynomolgus monkey). Put plainly: flow cytometry on Jurkat cells expressing cynomolgus TIGIT.
For assay [4] the target is unchanged. Kind of assay: flow cytometry, AF488-labelled antibody on Jurkat cells expressing cynomolgus TIGIT; reference Tiragolumab.

These are yes or no findings as the source states them, for the method shown. Some results given as binding are weak or reduced against the parent protein; the word gives no strength.

B1: 마우스 항-TIGIT 단클론 항체 2B7 (mouse backbone mIgG1) (antibody, V domains shown)
VH: EVQLQQSGPELVKPGASVKISCKTSGSTFTEYTMHWVKQSHGKSLEWIGGLNPNNGGTSYNQRFKDRATLTVDKSSSTAYMELRSLTSEDSAVYYCTRGTYYDYSFAYWGQGTLVTVSA
VL: DIVMTQSHKFMSTSVGDRVSITCKASHYVSTAVAWYQQKPGQSPKLLIYSPSYRYTGVPDRFTGSGSGTDFTFTISSVQAEDLAVYYCHQHYSTPWTFGGGTKLEIK
In the case of B1, the binding result in assay [1] and in assay [2] was “binds” throughout.

B2: 마우스-인간 키메라 항-TIGIT 단클론 항체 2B7 (인간 IgG1/kappa) (antibody, V domains shown)
VH: B1 VH
VL: DIVMTQSHKFMSTSVGDRVSITCKASHYVSTAVAWYQQKPGQSPKLLIYSPSYRYTGVPDRFTGSGSGTDFTFTISSVQAEDLAVYYCHQHYSTPWTFGGGTKLEIKR
On to B2, for which the binding entry in assay [3] and in assay [4] was “binds” each time.

B3: 마우스 항-TIGIT 단클론 항체 3F8 (mouse backbone mIgG1) (antibody, V domains shown)
VH: EVQLQQSGPELVKPGASMKISCKASGYSFTDYIMNWVKQSHGKNLEWIGLSIPYNGGTSYNQKFEGKATLTVDKSSSTAYMELLSLTSEDSAVYYCARGIKGYFAMDYWGQGTSVTVSS
VL: DVVVTQTPLSLPVSFGDQVSISCRSSQSLVNSFGKTYLSWFLHKPGQSPQLIMYGVSNRFSGVPDRFSGSGSGTDFTLKISTIKPEDLGMYYCLQGTHQPWTFGGGTKLEIK
Take B3: the binding result in assay [1] and in assay [2] was “binds” throughout.

B4: 마우스-인간 키메라 항-TIGIT 단클론 항체 3F8 (인간 IgG1/kappa) (antibody, V domains shown)
VH: B3 VH
VL: DVVVTQTPLSLPVSFGDQVSISCRSSQSLVNSFGKTYLSWFLHKPGQSPQLIMYGVSNRFSGVPDRFSGSGSGTDFTLKISTIKPEDLGMYYCLQGTHQPWTFGGGTKLEIKR
Turning to B4, the binding result in assay [3] and in assay [4] was “binds” throughout.
